B1: sorting nexin 18 (SNX18), endogenous in CAD cells (protein, UniProt Q91ZR2 1-614)
chain: MALRARALYDFKSENPGEISLREHEVLSLCSEQDIEGWLEGINSRGDRGLFPASYVQVIRAPEPGPPADGGPGAPARYANVPPGGFEPLPAAPPAAFPPLLQPQASPGSFQPPGAGFPYGGGALQPSPQQLYGGYQASLGSDDDWDDEWDDSSTVADEPGALGSGAYPDLDGSSSAGGGAAGRYRLSTRSDLSLGSRGVSAPPAPSVWSQELGHGEPQPQSLLHLRQVGRGGLRAGRGVRLREGWGQAVRGAGSYGPEWQENPYPFQCTIDDPTKQTKFKGMKSYISYKLVPTHTQVPVHRRYKHFDWLYARLAEKFPVISVPHLPEKQATGRFEEDFISKRRKGLIWWMNHMASHPVLAQCDVFQHFLTCPSSTDEKAWKQGKRKAEKDEMVGANFFLTLSTPPAAALDLQEVESKIDGFKCFTKKMDDSALQLNHTANEFARKQVTGFKKEYQKVGQSFRGLSQAFELDQQAFSVGLNQAIAFTGDAYDAIGELFAEQPRQDLDPVMDLLALYQGHLANFPDIIHVQKGALTKVKESRRHVEEGKMEVQKADGIQDRCNTISFATLAEIHHFHQIRVRDFKSQMQHFLQQQIIFFQKVTQKLEEALHKYDSV

Protein sequences, listed by entry. Tags and fused reporters are not part of them.
UniProt Q6PFY1: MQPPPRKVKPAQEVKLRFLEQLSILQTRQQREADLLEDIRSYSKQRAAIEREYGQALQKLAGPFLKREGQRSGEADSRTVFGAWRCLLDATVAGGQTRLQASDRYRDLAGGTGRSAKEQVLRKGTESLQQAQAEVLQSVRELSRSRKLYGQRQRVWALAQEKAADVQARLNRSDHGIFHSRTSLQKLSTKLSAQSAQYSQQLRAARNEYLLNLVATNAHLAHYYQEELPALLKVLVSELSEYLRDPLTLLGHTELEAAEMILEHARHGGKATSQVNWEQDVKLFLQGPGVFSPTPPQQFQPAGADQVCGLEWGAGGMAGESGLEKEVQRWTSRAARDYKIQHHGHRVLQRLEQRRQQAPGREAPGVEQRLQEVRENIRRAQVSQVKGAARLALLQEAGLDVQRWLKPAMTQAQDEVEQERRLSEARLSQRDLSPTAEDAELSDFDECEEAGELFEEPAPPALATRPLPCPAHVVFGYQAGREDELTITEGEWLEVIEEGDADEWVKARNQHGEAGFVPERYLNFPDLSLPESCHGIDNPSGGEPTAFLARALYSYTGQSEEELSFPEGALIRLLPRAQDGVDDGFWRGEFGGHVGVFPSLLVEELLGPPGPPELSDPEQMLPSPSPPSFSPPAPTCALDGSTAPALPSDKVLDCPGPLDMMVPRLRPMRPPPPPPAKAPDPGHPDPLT
UniProt Q6R891: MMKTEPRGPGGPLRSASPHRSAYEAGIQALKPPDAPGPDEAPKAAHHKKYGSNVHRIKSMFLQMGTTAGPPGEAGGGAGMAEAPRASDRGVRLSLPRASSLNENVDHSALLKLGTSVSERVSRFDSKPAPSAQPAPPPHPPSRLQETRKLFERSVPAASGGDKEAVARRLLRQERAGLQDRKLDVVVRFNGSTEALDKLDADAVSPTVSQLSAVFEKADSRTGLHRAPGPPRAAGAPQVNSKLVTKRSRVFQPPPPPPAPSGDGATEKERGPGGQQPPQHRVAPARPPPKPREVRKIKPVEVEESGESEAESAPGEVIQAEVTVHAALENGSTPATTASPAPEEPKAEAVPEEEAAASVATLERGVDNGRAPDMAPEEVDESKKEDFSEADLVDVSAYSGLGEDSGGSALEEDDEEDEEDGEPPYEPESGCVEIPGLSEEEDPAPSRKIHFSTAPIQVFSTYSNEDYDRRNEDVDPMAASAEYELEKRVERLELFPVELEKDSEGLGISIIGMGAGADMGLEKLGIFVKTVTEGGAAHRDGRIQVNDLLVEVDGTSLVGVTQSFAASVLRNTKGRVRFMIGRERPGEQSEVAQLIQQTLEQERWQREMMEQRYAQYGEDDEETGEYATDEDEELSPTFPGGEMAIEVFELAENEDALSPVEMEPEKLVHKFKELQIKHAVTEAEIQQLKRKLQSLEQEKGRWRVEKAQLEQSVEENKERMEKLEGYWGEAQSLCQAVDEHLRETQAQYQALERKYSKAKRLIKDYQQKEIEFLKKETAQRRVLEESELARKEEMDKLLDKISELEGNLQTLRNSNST
UniProt Q91VH2: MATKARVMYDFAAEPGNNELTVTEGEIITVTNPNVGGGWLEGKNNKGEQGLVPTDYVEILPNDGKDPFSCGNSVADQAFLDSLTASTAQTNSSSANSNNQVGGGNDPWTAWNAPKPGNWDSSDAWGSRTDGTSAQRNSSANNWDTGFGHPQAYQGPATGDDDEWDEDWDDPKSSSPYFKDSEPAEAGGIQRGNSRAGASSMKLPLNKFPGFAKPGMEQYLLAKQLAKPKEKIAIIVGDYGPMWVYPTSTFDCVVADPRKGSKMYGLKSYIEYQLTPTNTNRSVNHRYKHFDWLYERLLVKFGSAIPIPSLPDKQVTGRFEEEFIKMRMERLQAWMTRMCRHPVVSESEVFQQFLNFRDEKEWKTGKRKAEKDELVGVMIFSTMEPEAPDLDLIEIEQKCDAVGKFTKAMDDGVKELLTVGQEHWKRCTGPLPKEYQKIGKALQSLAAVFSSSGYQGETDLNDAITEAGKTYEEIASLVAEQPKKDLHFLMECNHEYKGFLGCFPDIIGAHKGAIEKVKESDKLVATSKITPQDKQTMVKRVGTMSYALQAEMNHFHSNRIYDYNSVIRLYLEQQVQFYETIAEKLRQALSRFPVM

The text below walks through data of article PMC4732300.

These are yes or no findings as the source states them, for the method shown. Binding seen in cells or lysates may run through a third protein. These calls come from enrichment with a bait or labelling near it, and not all partners need be listed.

The assay addresses FLAG–NWK2 (expressed in CAD cells) (mouse) (UniProt Q6PFY1). The assay is described as follows: affinity purification with mass spectrometry; FLAG–NWK2 transiently expressed in CAD cells; lysate (50 mM Tris-HCl pH 7.5, 150 mM NaCl, 1 mM EDTA, 1% Triton X-100) on anti-FLAG agarose, washes with 500 mM NaCl, elution with 3×FLAG peptide, trypsin digestion, LC-MS/MS; untransfected cells as control.
Consider “Spinophilin, endogenous in CAD cells (from UniProt Q6R891 1-817)”, for which the binding result is “binds”. The result for “sorting nexin 9 (SNX9), endogenous in CAD cells (from UniProt Q91VH2 1-595)” reads “binds”; that for B1, “binds”.
